From US20150148234A1, “HERBICIDE-RESISTANT SUNFLOWER PLANTS WITH MULTIPLE HERBICIDE RESISTANT ALLELES OF AHASL1 AND METHODS OF USE” (NIDERA S.A., priority 2013, published 2015)

Key:
[1] = test system: A122T/A205V heterozygous hybrids (CLHA-Plus/IMISUN hetero); assay: multi-location field evaluation of crop injury (Example 9); assay type: in vivo, sunflower; details: all locations and doses
[2] = test system: sunflower A205V vs A205V/A122T; assay: imazapyr whole plant greenhouse test (Example 2), genotype difference; assay type: in vivo; details: 14 DAT

Row | Compound | slope of the regression line (b), PI vs mean PI of A205V checks [1] | Difference between A205V vs A205V/A122T, Phytotoxicity Index ([2]; dose 0.5 (0.5x, 40 g ai/ha)) | Difference between A205V vs A205V/A122T, plant height ([2]; dose 0.5 (0.5x, 40 g ai/ha)) | Difference between A205V vs A205V/A122T, Phytotoxicity Index ([2]; dose 1 (1x, 80 g ai/ha)) | Difference between A205V vs A205V/A122T, plant height ([2]; dose 1 (1x, 80 g ai/ha)) | Difference between A205V vs A205V/A122T, Phytotoxicity Index ([2]; dose 2 (2x, 160 g ai/ha)) | Difference between A205V vs A205V/A122T, plant height ([2]; dose 2 (2x, 160 g ai/ha)) | Difference between A205V vs A205V/A122T, Phytotoxicity Index ([2]; dose 3 (3x, 240 g ai/ha)) | Difference between A205V vs A205V/A122T, plant height ([2]; dose 3 (3x, 240 g ai/ha)) | Difference between A205V vs A205V/A122T, Phytotoxicity Index ([2]; dose 4 (4x, 320 g ai/ha)) | Difference between A205V vs A205V/A122T, plant height ([2]; dose 4 (4x, 320 g ai/ha)) | Difference between A205V vs A205V/A122T, Phytotoxicity Index ([2]; dose 5 (5x, 400 g ai/ha)) | Difference between A205V vs A205V/A122T, plant height ([2]; dose 5 (5x, 400 g ai/ha)) | Difference between A205V vs A205V/A122T, Phytotoxicity Index ([2]; dose 6 (6x, 480 g ai/ha)) | Difference between A205V vs A205V/A122T, plant height ([2]; dose 6 (6x, 480 g ai/ha))
1 | CC(C)C1(C)N=C(c2ncccc2C(=O)O)NC1=O (stereo not shown) [imazapyr] | 0.26±0.07 | −0.50 | 0.21 | −0.50 | 0.89 | 1.66 | −24.63 | 4.65 | −46.79 | 6.92 | −62.01 | 7.59 | −48.59 | 7.19 | −31.39
2 | COCc1cnc(C2=NC(C)(C(C)C)C(=O)N2)c(C(=O)O)c1 (stereo not shown) [imazamox] | 41.39±0.05 | – | – | – | – | – | – | – | – | – | – | – | – | – | –
